Results reported in patent US8703913B2, “Sensor” (Medical Research Council, priority 2008, dated 2014).
Positions count from the first letter of the chain named. Numbers in names are those of the source. Some entries share one result that the patent states for a list of compounds.

B1: T175N: MDCC-ParM (His6/I27C/T175N/C287A) (conjugate, UniProt P11904 1-320, looked up, variant I27C T175N C287A)
Plasmid segregation protein …: MLVFIDDGSTNIKLQWQESDGTIKQHCSPNSFKREWAVSFGDKKVFNYTLNGEQYSFDPISPDAVVTTNIAWQYSDVNVVAVHHALLTSGLPVSEVDIVCTLPLTEYYDRNNQPNTENIERKKANFRKKITLNGGDTFTIKDVKVMPESIPAGYEVLQELDELDSLLIIDLGGTNLDISQVMGKLSGISKIYGDSSLGVSLVTSAVKDALSLARTKGSSYLADDIIIHRKDNNYLKQRINDENKISIVTEAMNEALRKLEQRVLNTLNEFSGYTHVMVIGGGAELIADAVKKHTQIRDERFFKTNNSQYDLVNGMYLIGN
modifications: MDCC label; His6 tag
B2: T175L: MDCC-ParM (His6/I27C/T175L/C287A) (conjugate, UniProt P11904 1-320, looked up, variant I27C T175L C287A)
Plasmid segregation protein …: B1 Plasmid segregation protein … with N175L
modifications: MDCC label; His6 tag
B3: T174A T175A: MDCC-ParM (His6/I27C/T174A/T175A/C287A) (conjugate, UniProt P11904 1-320, looked up, variant I27C T174A T175A C287A)
Plasmid segregation protein …: B1 Plasmid segregation protein … with T174A, N175A
modifications: MDCC label; His6 tag

assay: Fluorescence titration of labeled ParM with ATP; assay type: binding
Procedure: The MDCC fluorescence was excited at 431 nm and emission was recorded at 474 nm. The equilibrium dissociation constants were determined by fitting a quadratic binding curve to the data. For the plot the experimental fluorescence intensities were converted to the nucleotide bound fraction of ParM.
The equilibrium dissociation constants were determined by fitting a quadratic binding curve to the data and are listed in Table Y. For the plot the experimental fluorescence intensities were normalized to the maximal fluorescence change obtained at saturation with ADP.
ADP and ATP were purchased from Sigma at the highest purity available. The purity of the nucleotides was analysed by HPLC using a Partisphere SAX column, 125×4.5 mm (Whatman). Nucleotide separation was performed isocratic with 0.3 M (NH4)2HPO4 buffer pH 4.0, 25% MeOH, and the absorbance at 260 nm was monitored.
[formula] where [P] and [L] are the total concentrations of protein and ligand, respectively, Kd is the dissociation constant and Fmin and Fmax are the fluorescence intensities of the free and ligand bound protein.
Fluorescence spectra and titrations were measured in a Cary Eclipse spectrofluorimeter (Varian). Excitation and emission spectra were recorded with 5 nm slit width at emission and excitation wavelength of 576 nm and 553 nm, respectively. In titration experiments rhodamine fluorescence was measured at the same excitation/emission wavelength. Titration data were analyzed with a quadratic binding curve using the program Grafit 5.0 (7).

Molecule | discrimination against ATP (ATP binding weaker than ADP binding)
B1 | > 300 fold
B2 | > 300 fold
B3 | > 300 fold
